Data taken from the supplement of paper PMC10849652.
The other results are listed elsewhere or left out.

By UniProt entry, the sequences of proteins in these tests, tags left out. Where a name states a change or a piece, a line headed by the entry shows the natural chain unless it says otherwise.
UniProt Q9BZK7: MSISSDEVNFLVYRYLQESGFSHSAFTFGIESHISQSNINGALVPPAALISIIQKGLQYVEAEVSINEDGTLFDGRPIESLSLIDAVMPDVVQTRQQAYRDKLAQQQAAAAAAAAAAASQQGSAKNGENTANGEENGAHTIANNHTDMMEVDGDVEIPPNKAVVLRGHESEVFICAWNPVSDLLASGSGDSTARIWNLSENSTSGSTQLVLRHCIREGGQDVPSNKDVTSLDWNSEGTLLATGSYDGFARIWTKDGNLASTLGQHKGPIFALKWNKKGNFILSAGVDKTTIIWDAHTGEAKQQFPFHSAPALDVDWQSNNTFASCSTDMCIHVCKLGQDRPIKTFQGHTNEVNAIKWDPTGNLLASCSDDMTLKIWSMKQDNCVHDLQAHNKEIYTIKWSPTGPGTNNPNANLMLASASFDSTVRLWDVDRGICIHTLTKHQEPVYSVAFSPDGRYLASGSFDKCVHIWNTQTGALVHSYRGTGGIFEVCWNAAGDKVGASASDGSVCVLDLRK
UniProt P15923: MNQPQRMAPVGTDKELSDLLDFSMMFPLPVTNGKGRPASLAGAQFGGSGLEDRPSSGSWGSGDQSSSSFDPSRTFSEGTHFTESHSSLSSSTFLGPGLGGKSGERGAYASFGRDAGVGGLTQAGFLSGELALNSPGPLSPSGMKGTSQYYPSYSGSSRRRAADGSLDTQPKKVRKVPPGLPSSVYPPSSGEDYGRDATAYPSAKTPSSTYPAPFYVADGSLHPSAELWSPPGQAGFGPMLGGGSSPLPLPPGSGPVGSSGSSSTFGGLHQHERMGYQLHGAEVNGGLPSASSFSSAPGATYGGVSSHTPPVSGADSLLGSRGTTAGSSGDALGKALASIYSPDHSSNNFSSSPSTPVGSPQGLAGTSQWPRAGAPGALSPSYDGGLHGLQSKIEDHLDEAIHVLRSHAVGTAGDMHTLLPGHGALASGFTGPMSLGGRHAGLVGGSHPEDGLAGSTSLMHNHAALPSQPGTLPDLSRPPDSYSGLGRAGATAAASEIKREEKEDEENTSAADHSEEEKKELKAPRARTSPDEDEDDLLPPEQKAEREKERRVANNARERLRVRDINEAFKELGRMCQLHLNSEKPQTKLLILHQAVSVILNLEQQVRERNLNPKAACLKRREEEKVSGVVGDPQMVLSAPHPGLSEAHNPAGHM
UniProt A6NFQ2: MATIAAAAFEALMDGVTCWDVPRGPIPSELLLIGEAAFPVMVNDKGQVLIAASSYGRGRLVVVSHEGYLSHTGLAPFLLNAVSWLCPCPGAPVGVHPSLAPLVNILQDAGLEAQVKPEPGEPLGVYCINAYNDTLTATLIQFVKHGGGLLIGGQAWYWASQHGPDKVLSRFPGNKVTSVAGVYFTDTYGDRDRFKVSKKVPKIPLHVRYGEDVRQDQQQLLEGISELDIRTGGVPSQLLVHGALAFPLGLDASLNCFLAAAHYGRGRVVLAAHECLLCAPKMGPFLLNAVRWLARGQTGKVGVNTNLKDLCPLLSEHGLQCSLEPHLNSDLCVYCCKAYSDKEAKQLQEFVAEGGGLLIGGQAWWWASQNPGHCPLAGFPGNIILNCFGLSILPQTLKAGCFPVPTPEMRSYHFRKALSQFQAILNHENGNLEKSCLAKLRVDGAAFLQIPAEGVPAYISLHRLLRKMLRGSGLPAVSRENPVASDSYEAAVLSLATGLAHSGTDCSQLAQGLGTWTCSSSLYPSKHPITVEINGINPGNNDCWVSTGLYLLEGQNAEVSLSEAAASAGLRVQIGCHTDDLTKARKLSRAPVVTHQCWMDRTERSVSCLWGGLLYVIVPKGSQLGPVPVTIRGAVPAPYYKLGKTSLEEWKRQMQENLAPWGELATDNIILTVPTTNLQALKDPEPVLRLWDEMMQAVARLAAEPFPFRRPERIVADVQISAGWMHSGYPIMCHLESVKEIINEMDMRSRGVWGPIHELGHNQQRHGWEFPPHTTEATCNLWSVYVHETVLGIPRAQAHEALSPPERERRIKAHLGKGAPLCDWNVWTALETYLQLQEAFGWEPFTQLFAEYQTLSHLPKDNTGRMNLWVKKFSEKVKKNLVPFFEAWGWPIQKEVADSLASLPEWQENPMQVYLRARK
UniProt Q6P1N9: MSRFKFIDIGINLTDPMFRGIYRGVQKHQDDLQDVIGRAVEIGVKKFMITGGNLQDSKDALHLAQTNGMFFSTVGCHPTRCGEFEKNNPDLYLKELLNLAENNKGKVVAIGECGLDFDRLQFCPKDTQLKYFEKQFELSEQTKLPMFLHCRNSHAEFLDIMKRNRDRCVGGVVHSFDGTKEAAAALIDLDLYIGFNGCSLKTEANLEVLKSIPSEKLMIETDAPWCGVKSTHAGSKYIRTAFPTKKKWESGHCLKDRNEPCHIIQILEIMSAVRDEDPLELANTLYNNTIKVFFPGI
UniProt Q92609: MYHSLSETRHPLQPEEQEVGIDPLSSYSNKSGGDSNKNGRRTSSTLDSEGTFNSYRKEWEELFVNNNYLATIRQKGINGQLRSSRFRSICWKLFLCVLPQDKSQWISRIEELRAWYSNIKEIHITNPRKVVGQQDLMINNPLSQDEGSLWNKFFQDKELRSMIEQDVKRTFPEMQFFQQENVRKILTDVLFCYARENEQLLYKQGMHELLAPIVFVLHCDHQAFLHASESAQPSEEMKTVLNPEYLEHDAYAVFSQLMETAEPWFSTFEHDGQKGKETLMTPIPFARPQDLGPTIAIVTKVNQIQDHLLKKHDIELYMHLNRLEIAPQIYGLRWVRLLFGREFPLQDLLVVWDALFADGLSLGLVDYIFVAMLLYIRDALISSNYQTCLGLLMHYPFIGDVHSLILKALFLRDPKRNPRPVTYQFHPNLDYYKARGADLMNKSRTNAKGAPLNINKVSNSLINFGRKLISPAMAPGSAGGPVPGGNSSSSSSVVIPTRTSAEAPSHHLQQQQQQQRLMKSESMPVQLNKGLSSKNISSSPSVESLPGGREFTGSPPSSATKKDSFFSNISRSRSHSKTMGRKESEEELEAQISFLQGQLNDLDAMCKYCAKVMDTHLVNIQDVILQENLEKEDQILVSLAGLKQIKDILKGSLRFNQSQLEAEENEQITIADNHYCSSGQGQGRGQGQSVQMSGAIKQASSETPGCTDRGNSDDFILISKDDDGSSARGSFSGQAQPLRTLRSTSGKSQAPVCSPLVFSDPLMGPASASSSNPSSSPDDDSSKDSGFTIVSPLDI
UniProt Q13395: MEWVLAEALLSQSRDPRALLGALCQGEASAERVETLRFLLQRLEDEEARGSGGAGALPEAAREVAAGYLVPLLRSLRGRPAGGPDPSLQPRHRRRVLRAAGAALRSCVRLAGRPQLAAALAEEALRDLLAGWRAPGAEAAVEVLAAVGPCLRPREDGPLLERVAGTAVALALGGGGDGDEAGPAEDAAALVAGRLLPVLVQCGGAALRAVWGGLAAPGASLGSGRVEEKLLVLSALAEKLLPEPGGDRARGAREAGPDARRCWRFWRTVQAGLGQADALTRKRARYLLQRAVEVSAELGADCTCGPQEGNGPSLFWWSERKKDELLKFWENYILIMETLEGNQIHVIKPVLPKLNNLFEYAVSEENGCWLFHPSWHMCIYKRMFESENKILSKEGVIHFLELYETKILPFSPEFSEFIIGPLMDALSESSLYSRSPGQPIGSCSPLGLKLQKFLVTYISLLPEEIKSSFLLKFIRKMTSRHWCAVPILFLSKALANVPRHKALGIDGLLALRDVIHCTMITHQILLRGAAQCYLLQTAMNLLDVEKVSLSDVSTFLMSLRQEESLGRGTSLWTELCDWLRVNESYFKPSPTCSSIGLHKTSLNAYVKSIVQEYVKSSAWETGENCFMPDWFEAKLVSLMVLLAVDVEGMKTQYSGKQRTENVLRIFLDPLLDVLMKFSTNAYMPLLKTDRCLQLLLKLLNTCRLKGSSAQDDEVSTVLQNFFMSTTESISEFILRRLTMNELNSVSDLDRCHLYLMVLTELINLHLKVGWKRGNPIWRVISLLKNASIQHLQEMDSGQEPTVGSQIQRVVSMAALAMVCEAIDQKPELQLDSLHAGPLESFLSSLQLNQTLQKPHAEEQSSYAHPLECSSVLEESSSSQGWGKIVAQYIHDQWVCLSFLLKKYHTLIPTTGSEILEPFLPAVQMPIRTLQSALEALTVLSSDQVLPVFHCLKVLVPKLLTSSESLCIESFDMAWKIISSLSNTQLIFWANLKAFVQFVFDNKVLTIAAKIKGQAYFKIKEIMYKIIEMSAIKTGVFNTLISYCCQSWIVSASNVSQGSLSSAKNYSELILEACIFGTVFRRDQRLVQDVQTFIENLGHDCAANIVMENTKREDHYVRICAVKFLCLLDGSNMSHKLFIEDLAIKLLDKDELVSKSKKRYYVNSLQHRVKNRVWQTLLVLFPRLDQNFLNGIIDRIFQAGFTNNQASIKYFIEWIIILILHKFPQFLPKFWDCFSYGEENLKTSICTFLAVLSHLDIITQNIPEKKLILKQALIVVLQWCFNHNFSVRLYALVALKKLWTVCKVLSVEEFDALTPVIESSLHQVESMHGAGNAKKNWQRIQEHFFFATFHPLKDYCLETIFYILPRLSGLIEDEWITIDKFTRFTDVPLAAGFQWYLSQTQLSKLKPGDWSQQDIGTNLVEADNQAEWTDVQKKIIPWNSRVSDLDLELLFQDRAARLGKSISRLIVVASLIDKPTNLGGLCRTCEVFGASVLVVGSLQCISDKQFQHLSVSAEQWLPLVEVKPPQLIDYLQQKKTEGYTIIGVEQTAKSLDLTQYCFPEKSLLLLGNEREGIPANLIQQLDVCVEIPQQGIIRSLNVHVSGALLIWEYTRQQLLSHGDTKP
UniProt Q86VP1, whole entry, looked up: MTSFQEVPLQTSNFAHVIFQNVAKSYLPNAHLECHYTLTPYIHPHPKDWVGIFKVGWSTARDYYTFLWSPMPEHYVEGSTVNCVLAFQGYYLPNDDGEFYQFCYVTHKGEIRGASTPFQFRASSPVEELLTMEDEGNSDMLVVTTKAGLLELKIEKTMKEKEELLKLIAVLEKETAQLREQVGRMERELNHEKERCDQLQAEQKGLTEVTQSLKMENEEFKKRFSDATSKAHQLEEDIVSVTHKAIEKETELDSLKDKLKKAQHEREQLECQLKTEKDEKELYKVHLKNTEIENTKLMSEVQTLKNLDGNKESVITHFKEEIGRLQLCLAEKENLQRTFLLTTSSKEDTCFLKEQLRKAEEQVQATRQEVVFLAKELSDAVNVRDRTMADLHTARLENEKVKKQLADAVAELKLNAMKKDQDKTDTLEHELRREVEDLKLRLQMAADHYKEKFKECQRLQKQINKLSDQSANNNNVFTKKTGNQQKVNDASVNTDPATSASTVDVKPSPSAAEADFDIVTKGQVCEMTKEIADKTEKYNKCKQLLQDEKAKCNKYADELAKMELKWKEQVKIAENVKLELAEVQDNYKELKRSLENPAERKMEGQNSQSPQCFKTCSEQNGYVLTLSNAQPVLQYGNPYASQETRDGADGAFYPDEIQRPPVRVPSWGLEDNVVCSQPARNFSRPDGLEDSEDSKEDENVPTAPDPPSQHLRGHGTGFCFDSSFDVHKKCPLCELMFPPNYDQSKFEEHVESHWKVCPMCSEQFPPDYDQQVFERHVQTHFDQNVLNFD
UniProt Q12800: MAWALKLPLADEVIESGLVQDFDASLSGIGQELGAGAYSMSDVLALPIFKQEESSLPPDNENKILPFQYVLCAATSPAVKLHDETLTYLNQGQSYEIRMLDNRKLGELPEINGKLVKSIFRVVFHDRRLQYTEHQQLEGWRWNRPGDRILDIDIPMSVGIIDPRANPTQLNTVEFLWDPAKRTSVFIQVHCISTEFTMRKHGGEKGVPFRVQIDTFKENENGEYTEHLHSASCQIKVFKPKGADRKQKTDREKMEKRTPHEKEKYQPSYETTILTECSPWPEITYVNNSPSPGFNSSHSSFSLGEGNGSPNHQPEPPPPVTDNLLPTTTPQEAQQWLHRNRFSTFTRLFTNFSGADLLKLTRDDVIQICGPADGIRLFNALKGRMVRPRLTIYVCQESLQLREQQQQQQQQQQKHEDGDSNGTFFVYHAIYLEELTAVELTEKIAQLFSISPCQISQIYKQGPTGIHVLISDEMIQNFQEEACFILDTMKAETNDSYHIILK
UniProt P01137, whole entry, looked up: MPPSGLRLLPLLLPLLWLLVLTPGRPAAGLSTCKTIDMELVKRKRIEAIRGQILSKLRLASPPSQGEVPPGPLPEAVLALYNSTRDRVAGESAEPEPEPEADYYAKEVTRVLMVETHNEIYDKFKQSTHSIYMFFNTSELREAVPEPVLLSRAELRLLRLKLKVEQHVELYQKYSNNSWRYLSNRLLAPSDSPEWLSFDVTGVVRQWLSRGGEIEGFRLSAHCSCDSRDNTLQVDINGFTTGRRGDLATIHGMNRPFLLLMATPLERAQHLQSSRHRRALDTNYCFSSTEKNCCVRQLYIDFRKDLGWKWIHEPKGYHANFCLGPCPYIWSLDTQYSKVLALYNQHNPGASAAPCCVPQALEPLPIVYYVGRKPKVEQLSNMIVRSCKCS

Columns and labels:
Assay in all cases: log2 fold change, soluble protein after heating vs DMSO (PISA); higher = thermal stabilisation; K562 lysate, 10 uM; active = over 0.2 and 3.5 SD of the protein, either way, in both replicates (recomputed)
[1] = compound: CS(=O)(=O)CCNCc1ccc(-c2ccc3ncnc(Nc4ccc(OCc5cccc(F)c5)c(Cl)c4)c3c2)o1 [lapatinib]
Method in brief: (§1)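 Log-two fold change in thermal stability relative to solvent controls is reported from duplicates. For each sample, crude K562 extract from dounce-homogenised pellets in PBS pH 7.4 with 1 mM MgCl2, at 1 mg/mL protein, was treated with 10 μM compound for 30 min. Aliquots heated for 3 min across 48°C-58°C were pooled, brought to 0.5% NP-40 at 4°C and cleared at 21,000xg for 90 min. The supernatant was quantified by TMTpro 16plex LC-MS/MS with channel sums equalised.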

[2] = compound: CS(=O)(=O)N1CCN(Cc2cc3nc(-c4cccc5[nH]ncc45)nc(N4CCOCC4)c3s2)CC1 [pictilisib]
Method in brief: as §1

[3] = compound: C[C@@H](Oc1cc(-c2cnn(C3CCNCC3)c2)cnc1N)c1c(Cl)ccc(F)c1Cl [crizotinib]
Method in brief: as §1

[4] = compound: C[C@H](C1=CC=C(C=C1)C(=O)NC2=C3C=CNC3=NC=C2)N
Method in brief: as §1

[5] = compound: C[C@H](Nc1ncnc2nc[nH]c12)c1cc2cccc(Cl)c2c(=O)n1-c1ccccc1 [duvelisib]
Method in brief: as §1

[6] = compound: Cc1cc(Nc2cc(CN3CCOCC3)c3nc(C)c(Cc4ccc(Cl)cc4F)n3n2)n[nH]1 [gandotinib]
Method in brief: as §1

[7] = compound: Cc1cc(Nc2cc(N3CCN(C)CC3)nc(Sc3ccc(NC(=O)C4CC4)cc3)n2)n[nH]1 [tozasertib]
Method in brief: as §1

[8] = compound: Cc1ccc(-n2nc(C(C)(C)C)cc2NC(=O)Nc2ccc(OCCN3CCOCC3)c3ccccc23)cc1 [doramapimod]
Method in brief: as §1

[9] = compound: Cc1ccc(NC(=O)c2ccc(CN3CC[C@H](N(C)C)C3)c(C(F)(F)F)c2)cc1Nc1nccc(-c2cncnc2)n1 [bafetinib]
Method in brief: as §1

[10] = compound: Cc1cccc(CC(=O)N2CCc3c2ccc(-c2cn(C)c4ncnc(N)c24)c3F)n1
Method in brief: as §1

[11] = compound: Cc1cn(-c2cc(NC(=O)c3ccc(C)c(Nc4nccc(-c5cccnc5)n4)c3)cc(C(F)(F)F)c2)cn1 [nilotinib]
Method in brief: as §1

[12] = compound: Cc1nc(Nc2n[nH]c3c2CN(C(=O)N[C@H](CN(C)C)c2ccccc2)C3(C)C)c2sccc2n1
Method in brief: as §1

[13] = compound: Cc1nc(Nc2ncc(C(=O)Nc3c(C)cccc3Cl)s2)cc(N2CCN(CCO)CC2)n1 [dasatinib]
Method in brief: as §1

[14] = compound: Cc1ncc(-c2ccnc(Nc3ccc(S(C)(=O)=O)cc3)n2)n1C(C)C
Method in brief: as §1

[15] = compound: Cn1cc(-c2ccc3c(c2)CCN3C(=O)Cc2cccc(C(F)(F)F)c2)c2c(N)ncnc21
Method in brief: as §1

[16] = compound: Cn1cc(CNCC2CCN(c3ncc(C(=O)NO)cn3)CC2)c2ccccc21 [quisinostat]
Method in brief: as §1

[17] = compound: Cn1cncc1[C@@](N)(c1ccc(Cl)cc1)c1ccc2c(c1)c(-c1cccc(Cl)c1)cc(=O)n2C [tipifarnib]
Method in brief: as §1

[18] = compound: NC(=O)Nc1cc(-c2cccc(F)c2)sc1C(=O)N[C@H]1CCCNC1
Method in brief: as §1

[19] = compound: NC(=O)c1cnc(N[C@@H]2CCCC[C@@H]2N)nc1Nc1cccc(-n2nccn2)c1
Method in brief: as §1

[20] = compound: NC1(c2ccc(-c3nc4ccn5c(=O)[nH]nc5c4cc3-c3ccccc3)cc2)CCC1
Method in brief: as §1

Row | Target | log2 fold change [1] | log2 fold change [2] | log2 fold change [3] | log2 fold change [4] | log2 fold change [5] | log2 fold change [6] | log2 fold change [7] | log2 fold change [8] | log2 fold change [9] | log2 fold change [10] | log2 fold change [11] | log2 fold change [12] | log2 fold change [13] | log2 fold change [14] | log2 fold change [15] | log2 fold change [16] | log2 fold change [17] | log2 fold change [18] | log2 fold change [19] | log2 fold change [20]
1 | TFG (UniProt Q92734) | inactive: 0.009 | inactive: -0.008 | inactive: 0.019 | inactive: -0.015 | inactive: 0.02 | inactive: 0.022 | inactive: -0.009 | inactive: -0.027 | inactive: 0.043 | inactive: -0.038 | inactive: -0.015 | inactive: 0.02 | inactive: 0.041 | inactive: -0.028 | inactive: -0.004 | inactive: 0.014 | inactive: 0.032 | inactive: -0.028 | inactive: -0.016 | inactive: -0.017
2 | TBL1XR1 (UniProt Q9BZK7) | inactive: -0.003 | inactive: -0.022 | inactive: 0.037 | inactive: 0.034 | inactive: 0.001 | inactive: -0.061 | inactive: -0.003 | inactive: -0.001 | inactive: -0.043 | inactive: -0.048 | inactive: 0.087 | inactive: 0.028 | inactive: -0.043 | inactive: 0.018 | inactive: 0.005 | inactive: -0.032 | inactive: -0.055 | inactive: 0.016 | inactive: -0.009 | inactive: 0.007
3 | TCIRG1 (UniProt Q13488) | inactive: 0.037 | inactive: -0.036 | inactive: -0.022 | inactive: -0.007 | inactive: -0.069 | inactive: 0.006 | inactive: -0.049 | inactive: -0.091 | inactive: -0.05 | inactive: 0.003 | inactive: 0.066 | inactive: -0.033 | inactive: 0.087 | inactive: -0.072 | inactive: -0.067 | inactive: -0.016 | inactive: 0.002 | inactive: 0.09 | inactive: 0.021 | inactive: -0.044
4 | TCF3 (UniProt P15923) | inactive: 0.014 | inactive: 0.014 | inactive: 0.066 | inactive: -0.042 | active: 0.22 | inactive: 0.053 | inactive: -0.013 | inactive: -0.031 | inactive: -0.036 | inactive: -0.032 | inactive: 0.028 | inactive: -0.118 | inactive: -0.018 | inactive: -0.057 | inactive: -0.139 | inactive: 0.006 | inactive: -0.245 | inactive: 0.055 | inactive: -0.019 | inactive: -0.003
5 | TCAF2 (UniProt A6NFQ2) | inactive: 0.024 | inactive: -0.017 | inactive: -0.108 | inactive: -0.02 | inactive: 0.004 | inactive: -0.098 | inactive: 0.008 | inactive: -0.03 | inactive: -0.048 | inactive: 0.041 | inactive: 0.051 | inactive: 0.004 | inactive: 0.001 | inactive: 0.05 | inactive: 0.042 | inactive: -0.061 | inactive: -0.037 | inactive: 0.047 | inactive: 0.041 | inactive: -0.011
6 | TBK1 (UniProt Q9UHD2) | inactive: 0.042 | inactive: 0.054 | active: 0.469 | inactive: -0.059 | inactive: -0.046 | inactive: 0.342 | inactive: 0.314 | inactive: -0.024 | inactive: 0.007 | inactive: -0.044 | inactive: -0.003 | active: 0.618 | inactive: 0.029 | inactive: 0.125 | inactive: 0.251 | inactive: -0.097 | inactive: -0.026 | inactive: 0.209 | inactive: 0.032 | inactive: -0.074
7 | TCOF1 isoform 4 (UniProt Q13428) | inactive: -0.018 | inactive: -0.014 | inactive: 0.024 | inactive: -0.075 | inactive: 0.005 | inactive: 0.044 | inactive: -0.003 | inactive: 0.002 | inactive: -0.032 | inactive: 0.02 | inactive: 0 | inactive: -0.014 | inactive: 0.028 | inactive: -0.006 | inactive: -0.008 | inactive: -0.014 | inactive: -0.014 | inactive: -0.011 | inactive: -0.006 | inactive: -0.012
8 | TATDN1 (UniProt Q6P1N9) | inactive: 0.024 | inactive: 0.029 | inactive: 0.057 | inactive: 0.004 | inactive: 0.011 | inactive: 0.021 | inactive: -0.007 | inactive: 0.008 | inactive: 0.042 | inactive: 0.004 | inactive: -0.047 | inactive: -0.004 | inactive: 0.037 | inactive: 0.022 | inactive: 0.018 | inactive: 0.015 | inactive: 0.02 | inactive: 0.004 | inactive: 0.022 | inactive: 0.002
9 | TBC1D5 isoform 2 (UniProt Q92609) | inactive: -0.002 | inactive: -0.014 | inactive: -0.045 | inactive: 0.008 | inactive: -0.036 | inactive: -0.05 | inactive: -0.011 | inactive: 0.045 | inactive: -0.011 | inactive: 0.039 | inactive: 0.011 | inactive: 0.002 | inactive: -0.009 | inactive: -0.016 | inactive: -0.02 | inactive: -0.026 | inactive: -0.036 | inactive: 0.012 | inactive: 0.011 | inactive: -0.007
10 | TCAF1 (UniProt Q9Y4C2) | inactive: 0.012 | inactive: -0.04 | inactive: -0.024 | inactive: 0.024 | inactive: 0.036 | inactive: -0.068 | inactive: 0 | inactive: -0.006 | inactive: -0.053 | inactive: -0.001 | inactive: 0.003 | inactive: 0.017 | inactive: -0.004 | inactive: 0.001 | inactive: 0.061 | inactive: -0.018 | inactive: 0.005 | inactive: 0.037 | inactive: 0.059 | inactive: -0.043
11 | TARBP1 (UniProt Q13395) | inactive: -0.009 | inactive: 0.007 | inactive: -0.122 | inactive: 0.017 | inactive: -0.034 | inactive: -0.124 | inactive: 0.098 | inactive: -0.022 | inactive: -0.044 | inactive: 0.079 | inactive: -0.045 | inactive: 0.036 | inactive: -0.03 | inactive: -0.003 | inactive: 0.046 | inactive: -0.158 | inactive: 0.007 | inactive: 0.142 | inactive: 0.007 | inactive: -0.021
12 | TAX1BP1 (UniProt Q86VP1) | inactive: -0.05 | inactive: -0.032 | inactive: -0.006 | inactive: 0 | inactive: -0.031 | inactive: 0.019 | inactive: -0.016 | inactive: 0 | inactive: -0.045 | inactive: 0.031 | inactive: -0.041 | inactive: 0.013 | inactive: -0.021 | inactive: 0.007 | inactive: 0.007 | inactive: -0.018 | inactive: -0.014 | inactive: 0.021 | inactive: 0.018 | inactive: 0.032
13 | TCF12 isoform 3 (UniProt Q99081) | inactive: -0.047 | inactive: 0.055 | inactive: 0.034 | inactive: -0.038 | inactive: 0.025 | inactive: 0.056 | inactive: 0.023 | inactive: -0.011 | inactive: -0.11 | inactive: -0.001 | inactive: -0.031 | inactive: 0.016 | inactive: 0 | inactive: 0.052 | inactive: -0.022 | inactive: 0.02 | inactive: -0.022 | inactive: -0.011 | inactive: -0.032 | inactive: -0.043
14 | TFCP2 (UniProt Q12800) | inactive: 0.043 | inactive: 0.083 | inactive: -0.093 | inactive: 0 | inactive: -0.016 | inactive: 0.098 | inactive: 0.021 | inactive: 0.168 | inactive: -0.075 | inactive: 0.004 | inactive: 0.042 | inactive: 0.023 | inactive: -0.015 | inactive: 0.023 | inactive: 0.02 | inactive: -0.072 | inactive: -0.022 | inactive: 0.066 | inactive: 0.066 | inactive: -0.059
15 | TBC1D23 (UniProt Q9NUY8) | inactive: -0.007 | inactive: -0.016 | inactive: -0.031 | inactive: -0.033 | inactive: -0.012 | inactive: 0.03 | inactive: 0.034 | inactive: 0.017 | inactive: -0.027 | inactive: 0.048 | inactive: 0.013 | inactive: -0.018 | inactive: -0.001 | inactive: -0.005 | inactive: -0.021 | inactive: -0.028 | inactive: 0.018 | inactive: 0.01 | inactive: -0.032 | inactive: -0.004
16 | TGFB1 (UniProt P01137) | inactive: -0.037 | inactive: -0.019 | inactive: 0.016 | inactive: -0.056 | inactive: 0.027 | inactive: 0.052 | inactive: -0.002 | inactive: -0.026 | inactive: -0.026 | inactive: 0.027 | inactive: 0.019 | inactive: 0 | inactive: 0.027 | inactive: -0.025 | inactive: -0.007 | inactive: 0.045 | inactive: -0.034 | inactive: 0.037 | inactive: 0.009 | inactive: -0.021
